Substitutions are numbered along the chain they refer to. For at least one entry, the source does not settle the construct or the ends of the probe. For some assays here: At least one verdict was read from the data and is not stated in words by the source. Where a protein sequence is shown, tags need not be part of it. For some assays here: The direction of at least one scale is not stated here.

Data set [1] deals with T1, hDus2 dsRBD Q367A (Homo sapiens) (UniProt Q9NX74).
T1 sequence (looked up): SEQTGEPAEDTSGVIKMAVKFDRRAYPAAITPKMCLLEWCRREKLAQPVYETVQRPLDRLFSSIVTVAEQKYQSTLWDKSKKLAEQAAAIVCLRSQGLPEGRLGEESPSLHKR
Put plainly: EMSA. The note with it: impaired discrimination between dsRNA and tRNA; EMSA: 50 mM Tris-HCl pH 8, 10% glycerol, 5 mM DTT, 150 mM ammonium acetate, 1 uM tRNALys3, 20 min room temperature; 6% native PAGE at 4 C; recombinant protein; residues 339-451. (Mobility shift assays separate free from complexed probe on a gel.)

Data set [2] concerns the target T2, hDus2 dsRBD R362A (Homo sapiens) (UniProt Q9NX74).
T2 sequence (looked up): T1 sequence (looked up) with R24A, A29Q
Briefly: EMSA. The note with it: EMSA: 50 mM Tris-HCl pH 8, 10% glycerol, 5 mM DTT, 150 mM ammonium acetate, 1 uM tRNALys3, 20 min room temperature; 6% native PAGE at 4 C; recombinant protein; residues 339-451; scale: fold lower affinity than same mutant for tRNA.

Take “CGAACUUCGCG / CGAACUUCGCG [11-nt palindromic dsRNA]”: the binding result in data set [1] is “binds”. Moreover, the binding signal in data set [2] stood at 3.

The values above are taken from paper PMC6451096, “Molecular basis for transfer RNA recognition by the double-stranded RNA-binding domain of human dihydrouridine synthase 2”.
